Some of the results follow. Further columns of the screen follow, without active or inactive calls. Most of these compounds were active or inconclusive in the main read-out, so they are no random draw. Words in brackets tell the shape of the fitted curve; partial curves, single points and poor fits give uncertain potencies.
Experiment: qHTS Assay for Lipid Storage Modulators in Drosophila S3 Cells;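 for cell number change: cells counted by Cell Tracker Red CMTPX staining in the red channel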
Conditions: BODIPY lipid droplet fluorescence, 18-24 h; for cell number change: measured here: cell count max response, cells fed with added oleic acid
In short: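 Drosophila S3 cells got compounds at several concentrations plus oleic acid (400 uM solution). Laser-scanning cytometry with 488 nm excitation read lipid droplets at 500-530 nm and cells at 575-640 nm. Percent activity was relative to 20 uM Triacsin C.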

[1] = measured here: lipid fluorescence (Fed channel) AC50, cells fed with added oleic acid
[2] = measured here: cell number channel AC50, cells fed with added oleic acid

| Compound | cell number change [%] | AC50 [1] | AC50 [2] |
| --- | --- | --- | --- |
| Cc1cc(C)c2c(c1)cc(C)c1nnc(SCC(=O)N3CCCc4ccccc43)n12 | -0.688 | 82 nM [rising, full curve, poor fit] | – |
| COc1cc2c(cc1NC(=O)CCCN1C(=O)CCC1=O)oc1ccccc12 | – | 580 nM [rising, single point] | – |
| O=C(O)Cc1cn(-c2ccccc2)nc1-c1ccccc1 | – | – | 116 nM [rising, single point] |
| Oc1ccc2ccccc2c1C=Nc1ccccc1-c1nc2ccccc2[nH]1 | 9.31 | – | 1840 nM [rising, partial curve] |
| CN(C)S(=O)(=O)c1ccc(C(=O)Nc2cc3c(cc2C(=O)O)OCCCO3)cc1 | 11.1 | – | – |
| Cc1nc2ccccc2nc1OCC(=O)NCc1ccc2c(c1)OCO2 | 33.2 | – | 5170 nM [rising, single point] |
| COc1cccc(NC(=O)Nc2nnc(CC(=O)NCc3ccccc3)s2)c1 | 14.4 | 2910 nM [rising, full curve, poor fit] | – |
| CC1Cc2ccccc2N1C(=O)c1cnc2n(c1=O)CCS2 (stereo not given) | 6.22 | 25900 nM [rising, partial curve, poor fit] | – |
| O=C(CSC1=NS(=O)(=O)c2cc(F)ccc2N1)NCc1ccccc1Cl | -10.5 | 731 nM [falling, full curve, poor fit] | – |
| Cc1c(C(=O)N2CCCCC2)oc2ccc(S(=O)(=O)N3CC(C)CC(C)C3)cc12 (stereo not given) | -29.1 | 16400 nM [falling, single point] | – |
| O=C(Cn1ccc(NC(=O)OCc2ccccc2)nc1=O)NCCCN1CCCC1=O | 12.7 | 130 nM [rising, full curve, poor fit] | – |
| N=c1c(S(=O)(=O)c2ccccc2)cc2c(=O)n3ccccc3nc2n1CC1CCCO1 (stereo not given) | 22.1 | 461 nM [rising, full curve] | – |
| CC(C)COc1ccc(C(=O)Nc2ccc(NC(=O)c3ccco3)cc2)cc1 | 11.5 | 5170 nM [falling, single point] | – |
| COC(=O)c1ccccc1C(=O)N1CCCC(CCC(=O)NCc2ccc(F)c(F)c2)C1 (stereo not given) | -7.32 | 32600 nM [falling, single point] | – |
| C=CCn1c(Cc2ccc(OC)cc2)nnc1SCc1nc2ccccc2c(=O)[nH]1 | 5.39 | 461 nM [rising, partial curve, poor fit] | – |
| O=C(NCCc1ccccc1)c1ccc(-c2ccc(F)cc2)o1 | -37.5 | 29100 nM [falling, single point] | 29100 nM [falling, single point] |

Arranged by length of the SMILES (smallest number first): some entries from above

| Compound | cell number change [%] | AC50 [1] | AC50 [2] |
| --- | --- | --- | --- |
| O=C(O)Cc1cn(-c2ccccc2)nc1-c1ccccc1 | – | – | 116 nM [rising, single point] |
| Cc1nc2ccccc2nc1OCC(=O)NCc1ccc2c(c1)OCO2 | 33.2 | – | 5170 nM [rising, single point] |
| O=C(Cn1ccc(NC(=O)OCc2ccccc2)nc1=O)NCCCN1CCCC1=O | 12.7 | 130 nM [rising, full curve, poor fit] | – |

— PubChem BioAssay AID2685 (National Center for Advancing Translational Sciences (NCATS), 2010)
